Drawing on article PMC8263009, this text covers binding for one molecule.

This assay deals with T1, WHITE COLLAR protein WC-2 (Neurospora (endogenous in Neurospora extracts)) (UniProt P78714).
T1 sequence: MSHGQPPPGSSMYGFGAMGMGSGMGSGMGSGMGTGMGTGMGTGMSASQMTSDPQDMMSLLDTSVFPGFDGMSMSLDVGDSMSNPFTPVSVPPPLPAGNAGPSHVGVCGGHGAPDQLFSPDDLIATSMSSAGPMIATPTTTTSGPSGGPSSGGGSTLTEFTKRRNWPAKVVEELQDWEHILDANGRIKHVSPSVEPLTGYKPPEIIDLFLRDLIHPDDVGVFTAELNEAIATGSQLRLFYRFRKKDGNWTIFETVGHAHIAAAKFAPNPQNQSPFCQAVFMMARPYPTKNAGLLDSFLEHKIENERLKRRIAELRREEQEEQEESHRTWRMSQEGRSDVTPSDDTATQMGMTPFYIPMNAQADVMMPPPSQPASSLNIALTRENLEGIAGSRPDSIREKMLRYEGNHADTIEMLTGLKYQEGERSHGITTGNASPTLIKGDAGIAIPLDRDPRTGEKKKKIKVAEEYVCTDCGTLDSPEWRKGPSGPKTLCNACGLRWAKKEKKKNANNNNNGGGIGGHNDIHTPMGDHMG
Description: co-IP; WC-2 antibody and GammaBind G Sepharose on 2 mg extract of the wild-type strain grown at different temperatures in constant light; blot for FRQ and WC-2.

Results are given in words; binding and its absence hold for the method and conditions named. In cells and extracts the contact can be indirect. Some results given as binding are weak or reduced against the parent protein; the word gives no strength.

B1: FREQUENCY (FRQ), wild type (protein, UniProt P19970 1-989)
chain: MADSGDKSQGMRPPPFDSRGHPLPRRASPDKSITLENHRLARDTSSRVTSSSALGVTESQPQLKSSPTRRNSSGESEPTNWFNQSNRNPAAAFHDESHIMEVDPPFYQKETDSSNEESRYPPGRNPVHPPGGVQLPGFRPVAAHSSAADDYRSVIDDLTVENKRLKEELKRYKQFGSDVMRKEKLFEIKVHGLPRRKKRELEATLRDFAASLGDSSESTSQRRKTGRHGTAVHSSGVSLSKHDSSSSSRSRPVDSAYNSMSTGRSSHAPHSSGPSLGRPSLTRAKSVGTQKVENYLRDTPDGLLPHHIVMTDKEKKKLVVRRLEQLFTGKISGRNMQRNQSMPSMDAPLAPEGTNMAPPRPPPEGLREACIQLQDGDNPRKNRSSKDNGSASNSGGDQTELGGTGTGSGDGSGSGGRTGNNTSPPGAIAPDQRPTRPRDLDPDRVQIPSENMDYIRHLGLVSPEFLQGSRTSYQDVAPDAEGWVYLNLLCNLAQLHMVNVTPSFIRQAVSEKSTKFQLSADGRKIRWRGGTDGTKFSSDSSEDKSQQSPMTEDTEDGSDKNGRRKKRKTQQASSEIGRFGPSRSPSDTFHYKPMFVHRNSSSIETSLEESMSQGSEDAVDESNMGNSKWDFSGSGTTQQRRKRRYDGAIVYYTGAPFCTDLSGDPGDMSPTAQMTAGREVEGSGSGDEVEHVLQRTLSGSSLPIRPLSDDRARVAEVLDFDPGNPPELVADDGSSPNDEDFVFPWCEDPAKVRIQPIAKEVMEPSGLGGVLPDDHFVMLVTTRRVVRPILQRQLSRSTTSEDTAEFIAERLAAIRTSSPLPPRSHRLTVAPLQVEYVSGQFRRLNPAPLPPPAIFYPPFSTDSSWDDGDDLASDDEEVEEVEEDSYSEGQISRRANPHFSDNNTYMRKDDLAFDTETDVRMDSDDNRLSDSGHNMRAMMPRAEAVDGDDSPLAAVTGKEVDMLHTGSSVATAGGAESGYSSSMEDVSSS
Consider B1, for which the binding entry is on record as “binds”.
